± gives the standard deviation of the averaged measurements. The list shows a part of the results, in another mix than the full data. Most values lie at the level of the controls, where differences are scatter.
Compound: Nc1ncnc2c1ncn2[C@@H]1O[C@H](COP(=O)(O)OP(=O)(O)OP(=O)(O)O)[C@@H](O)[C@H]1O [adenosine triphosphate]
Experiment: NP40-soluble protein abundance relative to vehicle (solubility fold change) (ratio); higher = more soluble protein in presence of ATP
Outline: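 Jurkat crude lysate (Dounce-homogenised) was treated with eight concentrations from 0.1 to 10 mM for 10 min at room temperature, then 3 min at 37 °C. It was solubilised with 0.8% NP40 and benzonase (60 min, 4 °C) and ultracentrifuged, and the supernatant was TMT-labelled for LC-MS/MS. Intensities were vsn-normalised, and the value is the fold change against the NP40-processed vehicle per replicate, from three independent experiments.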

The chains behind the UniProt entries cited, without tags or fusion partners. Where a name states a change or a piece, a line headed by the entry shows the natural chain unless it says otherwise.
UniProt Q96L93: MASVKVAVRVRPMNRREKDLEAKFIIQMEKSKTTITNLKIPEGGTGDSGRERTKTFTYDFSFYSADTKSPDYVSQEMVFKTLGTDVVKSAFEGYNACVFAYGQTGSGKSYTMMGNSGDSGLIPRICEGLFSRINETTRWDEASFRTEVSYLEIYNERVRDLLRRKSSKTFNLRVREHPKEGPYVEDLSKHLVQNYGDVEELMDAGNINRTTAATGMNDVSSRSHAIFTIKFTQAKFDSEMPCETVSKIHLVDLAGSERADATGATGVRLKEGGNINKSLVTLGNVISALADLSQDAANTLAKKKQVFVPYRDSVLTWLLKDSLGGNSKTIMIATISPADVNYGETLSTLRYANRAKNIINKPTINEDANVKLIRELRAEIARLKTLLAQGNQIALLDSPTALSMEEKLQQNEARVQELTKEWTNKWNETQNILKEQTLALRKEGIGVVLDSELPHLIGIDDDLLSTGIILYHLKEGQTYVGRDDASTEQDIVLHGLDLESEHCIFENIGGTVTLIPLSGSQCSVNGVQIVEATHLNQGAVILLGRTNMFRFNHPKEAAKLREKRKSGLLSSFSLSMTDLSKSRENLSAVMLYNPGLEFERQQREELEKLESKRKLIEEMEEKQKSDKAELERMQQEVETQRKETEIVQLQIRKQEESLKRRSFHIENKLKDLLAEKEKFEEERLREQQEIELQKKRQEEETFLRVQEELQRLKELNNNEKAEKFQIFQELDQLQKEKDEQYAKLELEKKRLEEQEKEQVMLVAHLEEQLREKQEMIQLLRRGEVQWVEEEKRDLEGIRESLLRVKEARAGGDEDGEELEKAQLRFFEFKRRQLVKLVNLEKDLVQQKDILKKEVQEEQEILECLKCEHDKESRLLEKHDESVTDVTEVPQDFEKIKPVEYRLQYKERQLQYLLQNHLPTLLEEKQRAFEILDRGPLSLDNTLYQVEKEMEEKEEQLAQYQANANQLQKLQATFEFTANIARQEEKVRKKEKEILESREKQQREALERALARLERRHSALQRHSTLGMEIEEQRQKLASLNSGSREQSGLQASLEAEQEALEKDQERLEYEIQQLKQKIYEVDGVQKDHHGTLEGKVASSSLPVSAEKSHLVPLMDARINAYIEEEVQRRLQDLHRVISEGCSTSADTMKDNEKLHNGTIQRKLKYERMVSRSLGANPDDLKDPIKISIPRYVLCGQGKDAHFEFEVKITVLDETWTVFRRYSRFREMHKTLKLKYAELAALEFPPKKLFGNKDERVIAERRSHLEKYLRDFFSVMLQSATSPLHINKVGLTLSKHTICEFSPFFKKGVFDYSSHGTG
UniProt Q96JQ2: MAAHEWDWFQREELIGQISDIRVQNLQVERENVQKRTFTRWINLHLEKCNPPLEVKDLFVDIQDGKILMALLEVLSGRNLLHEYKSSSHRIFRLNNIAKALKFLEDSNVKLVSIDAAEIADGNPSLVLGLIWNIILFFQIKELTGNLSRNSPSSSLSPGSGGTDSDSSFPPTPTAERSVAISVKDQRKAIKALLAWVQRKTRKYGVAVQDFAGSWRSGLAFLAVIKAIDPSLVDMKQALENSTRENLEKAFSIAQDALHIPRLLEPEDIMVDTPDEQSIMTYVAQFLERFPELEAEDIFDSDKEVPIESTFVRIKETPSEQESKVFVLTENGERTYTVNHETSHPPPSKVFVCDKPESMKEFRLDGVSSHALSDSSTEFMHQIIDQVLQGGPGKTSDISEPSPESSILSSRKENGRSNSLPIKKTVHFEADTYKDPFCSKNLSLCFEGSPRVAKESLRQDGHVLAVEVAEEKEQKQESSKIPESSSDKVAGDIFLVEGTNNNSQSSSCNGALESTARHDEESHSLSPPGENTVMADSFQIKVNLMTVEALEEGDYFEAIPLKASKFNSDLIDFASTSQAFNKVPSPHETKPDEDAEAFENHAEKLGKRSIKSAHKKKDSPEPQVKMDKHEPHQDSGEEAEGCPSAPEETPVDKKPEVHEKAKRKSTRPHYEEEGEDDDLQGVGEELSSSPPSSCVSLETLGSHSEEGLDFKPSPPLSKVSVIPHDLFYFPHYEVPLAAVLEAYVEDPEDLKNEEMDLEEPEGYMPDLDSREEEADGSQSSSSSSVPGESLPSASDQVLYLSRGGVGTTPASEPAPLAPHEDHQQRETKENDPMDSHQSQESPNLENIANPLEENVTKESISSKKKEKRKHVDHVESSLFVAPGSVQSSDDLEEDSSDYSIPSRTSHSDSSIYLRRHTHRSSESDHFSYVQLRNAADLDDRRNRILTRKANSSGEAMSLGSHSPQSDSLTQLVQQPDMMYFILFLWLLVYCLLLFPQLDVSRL
UniProt Q96HC4: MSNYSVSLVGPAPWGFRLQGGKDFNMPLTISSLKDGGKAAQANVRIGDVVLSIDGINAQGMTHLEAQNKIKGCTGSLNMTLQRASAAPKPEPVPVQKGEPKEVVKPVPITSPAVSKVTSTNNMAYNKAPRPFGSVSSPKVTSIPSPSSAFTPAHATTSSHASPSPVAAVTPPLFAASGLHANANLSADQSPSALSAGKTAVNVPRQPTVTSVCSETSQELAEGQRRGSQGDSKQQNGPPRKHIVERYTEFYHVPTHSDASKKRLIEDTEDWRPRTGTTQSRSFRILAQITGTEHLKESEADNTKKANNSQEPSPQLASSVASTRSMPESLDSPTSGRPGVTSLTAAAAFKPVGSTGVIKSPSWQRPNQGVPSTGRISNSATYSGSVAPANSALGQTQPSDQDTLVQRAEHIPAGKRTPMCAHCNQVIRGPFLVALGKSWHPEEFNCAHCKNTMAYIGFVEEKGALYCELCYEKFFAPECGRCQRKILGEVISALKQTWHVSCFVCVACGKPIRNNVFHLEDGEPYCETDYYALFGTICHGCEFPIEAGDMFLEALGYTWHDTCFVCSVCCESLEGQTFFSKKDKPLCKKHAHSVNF
UniProt Q96HQ2: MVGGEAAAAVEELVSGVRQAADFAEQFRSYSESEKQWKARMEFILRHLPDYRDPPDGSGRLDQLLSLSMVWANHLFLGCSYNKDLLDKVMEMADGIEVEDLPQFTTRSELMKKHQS
UniProt Q96RE7: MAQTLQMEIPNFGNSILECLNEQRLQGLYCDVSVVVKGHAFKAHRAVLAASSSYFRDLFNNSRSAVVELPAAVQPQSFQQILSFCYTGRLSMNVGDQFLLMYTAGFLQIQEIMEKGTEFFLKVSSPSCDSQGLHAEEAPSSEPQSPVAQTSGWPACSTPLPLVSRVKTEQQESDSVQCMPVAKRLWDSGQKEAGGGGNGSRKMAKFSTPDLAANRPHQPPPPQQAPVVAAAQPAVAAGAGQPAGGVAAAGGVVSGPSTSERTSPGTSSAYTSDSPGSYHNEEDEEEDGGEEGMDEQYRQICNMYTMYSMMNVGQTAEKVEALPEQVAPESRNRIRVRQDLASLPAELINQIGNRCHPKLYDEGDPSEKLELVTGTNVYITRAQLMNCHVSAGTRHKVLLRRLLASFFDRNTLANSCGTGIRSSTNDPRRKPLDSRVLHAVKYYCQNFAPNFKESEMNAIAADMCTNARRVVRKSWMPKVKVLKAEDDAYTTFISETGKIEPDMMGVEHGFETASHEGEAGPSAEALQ
UniProt Q96D05: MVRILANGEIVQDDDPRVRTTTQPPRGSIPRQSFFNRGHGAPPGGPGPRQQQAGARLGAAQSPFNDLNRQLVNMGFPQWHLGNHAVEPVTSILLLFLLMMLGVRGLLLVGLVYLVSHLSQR
UniProt Q96MX0: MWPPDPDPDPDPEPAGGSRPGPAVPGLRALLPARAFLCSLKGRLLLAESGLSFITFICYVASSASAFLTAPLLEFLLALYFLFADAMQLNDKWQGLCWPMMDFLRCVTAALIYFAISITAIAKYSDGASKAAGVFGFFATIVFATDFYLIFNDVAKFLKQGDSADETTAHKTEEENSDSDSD
UniProt Q96EA4: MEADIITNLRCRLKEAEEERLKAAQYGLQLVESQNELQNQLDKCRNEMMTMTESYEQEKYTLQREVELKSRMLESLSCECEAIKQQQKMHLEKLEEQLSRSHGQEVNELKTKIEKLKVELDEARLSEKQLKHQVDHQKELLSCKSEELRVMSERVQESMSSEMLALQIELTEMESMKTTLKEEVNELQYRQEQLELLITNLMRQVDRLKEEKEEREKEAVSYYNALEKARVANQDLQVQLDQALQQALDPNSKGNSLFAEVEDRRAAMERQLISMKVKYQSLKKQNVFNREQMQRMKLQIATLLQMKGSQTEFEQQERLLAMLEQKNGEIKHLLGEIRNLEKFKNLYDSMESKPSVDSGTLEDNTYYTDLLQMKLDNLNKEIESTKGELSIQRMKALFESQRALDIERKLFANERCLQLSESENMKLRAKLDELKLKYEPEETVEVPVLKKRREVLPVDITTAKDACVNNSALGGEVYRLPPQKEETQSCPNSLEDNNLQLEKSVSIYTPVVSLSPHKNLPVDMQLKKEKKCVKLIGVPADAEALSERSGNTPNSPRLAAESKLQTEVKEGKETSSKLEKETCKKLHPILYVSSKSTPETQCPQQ
UniProt Q96ST3: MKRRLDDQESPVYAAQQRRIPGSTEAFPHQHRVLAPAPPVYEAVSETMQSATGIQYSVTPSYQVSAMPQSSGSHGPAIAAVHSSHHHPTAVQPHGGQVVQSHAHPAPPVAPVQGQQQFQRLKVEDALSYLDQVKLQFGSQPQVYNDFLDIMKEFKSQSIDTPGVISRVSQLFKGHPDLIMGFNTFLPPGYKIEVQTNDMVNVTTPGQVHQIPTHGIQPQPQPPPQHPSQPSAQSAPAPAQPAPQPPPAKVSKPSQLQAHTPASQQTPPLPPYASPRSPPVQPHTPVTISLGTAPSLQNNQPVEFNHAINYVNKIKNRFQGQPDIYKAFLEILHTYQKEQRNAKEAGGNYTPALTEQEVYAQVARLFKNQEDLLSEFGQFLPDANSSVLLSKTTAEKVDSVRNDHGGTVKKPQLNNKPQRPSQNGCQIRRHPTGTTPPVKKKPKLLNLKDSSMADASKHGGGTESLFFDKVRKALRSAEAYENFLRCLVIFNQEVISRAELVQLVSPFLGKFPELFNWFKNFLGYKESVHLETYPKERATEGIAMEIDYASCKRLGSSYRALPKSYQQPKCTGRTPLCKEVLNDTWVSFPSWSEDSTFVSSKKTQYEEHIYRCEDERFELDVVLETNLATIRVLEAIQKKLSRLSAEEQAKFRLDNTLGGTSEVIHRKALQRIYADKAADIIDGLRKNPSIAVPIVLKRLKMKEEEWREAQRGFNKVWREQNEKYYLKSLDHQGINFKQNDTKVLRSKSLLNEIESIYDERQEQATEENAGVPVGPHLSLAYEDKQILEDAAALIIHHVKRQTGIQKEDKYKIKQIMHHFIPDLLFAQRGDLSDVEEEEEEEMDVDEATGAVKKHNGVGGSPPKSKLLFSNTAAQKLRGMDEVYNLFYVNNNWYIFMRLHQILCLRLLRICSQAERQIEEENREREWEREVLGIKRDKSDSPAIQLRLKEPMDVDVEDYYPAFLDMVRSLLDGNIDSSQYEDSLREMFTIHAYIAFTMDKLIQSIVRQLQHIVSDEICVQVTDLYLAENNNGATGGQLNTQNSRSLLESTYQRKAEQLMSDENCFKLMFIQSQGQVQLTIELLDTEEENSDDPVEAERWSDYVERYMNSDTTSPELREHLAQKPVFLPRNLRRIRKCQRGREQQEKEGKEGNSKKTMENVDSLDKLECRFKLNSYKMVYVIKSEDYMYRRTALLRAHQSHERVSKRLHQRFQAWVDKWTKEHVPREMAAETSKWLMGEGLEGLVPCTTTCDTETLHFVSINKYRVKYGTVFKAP
UniProt Q96EM0: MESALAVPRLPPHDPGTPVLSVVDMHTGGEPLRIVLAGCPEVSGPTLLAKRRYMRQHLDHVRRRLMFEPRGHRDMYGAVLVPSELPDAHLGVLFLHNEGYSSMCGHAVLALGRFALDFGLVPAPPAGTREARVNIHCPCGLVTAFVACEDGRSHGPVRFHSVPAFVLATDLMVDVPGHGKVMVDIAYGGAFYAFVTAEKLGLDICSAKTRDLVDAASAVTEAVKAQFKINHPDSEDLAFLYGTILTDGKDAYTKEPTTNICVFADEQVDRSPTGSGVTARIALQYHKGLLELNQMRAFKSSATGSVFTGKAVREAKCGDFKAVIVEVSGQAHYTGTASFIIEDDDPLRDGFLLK
UniProt Q96CB8, whole entry: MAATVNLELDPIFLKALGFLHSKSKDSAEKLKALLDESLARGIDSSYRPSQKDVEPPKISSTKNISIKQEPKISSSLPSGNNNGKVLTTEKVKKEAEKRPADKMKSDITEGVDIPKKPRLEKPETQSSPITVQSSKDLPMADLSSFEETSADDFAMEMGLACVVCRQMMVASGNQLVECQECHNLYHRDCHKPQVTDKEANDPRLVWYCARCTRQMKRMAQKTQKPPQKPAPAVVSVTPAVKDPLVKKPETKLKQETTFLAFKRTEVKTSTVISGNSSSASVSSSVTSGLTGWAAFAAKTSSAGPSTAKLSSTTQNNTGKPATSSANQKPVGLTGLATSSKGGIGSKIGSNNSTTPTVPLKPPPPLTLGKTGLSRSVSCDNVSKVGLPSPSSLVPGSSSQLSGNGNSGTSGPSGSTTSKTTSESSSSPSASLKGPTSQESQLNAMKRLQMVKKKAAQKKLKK

Target	NP40-soluble protein abundance (concentration: 0.1mM)	NP40-soluble protein abundance (concentration: 0.5mM)
UniProt Q96CS2	0.93 ± 0.17	0.89 ± 0.15
MRRF (UniProt Q96E11)	0.97 ± 0.036	0.869 ± 0.12
FAF2 (UniProt Q96CS3)	1.07 ± 0.13	1.03 ± 0.057
UniProt Q96L93 and related entries	1.08 ± 0.055	1.04 ± 0.052
UniProt Q96Q05-3|Q96Q05 and related entries	1.019 ± 0.0098	0.991 ± 0.037
UniProt Q96SB8 and related entries	1.05 ± 0.036	1.06 ± 0.064
UniProt Q96JQ2	0.953 ± 0.14	0.945 ± 0.017
PDLIM5 (UniProt Q96HC4)	1.01 ± 0.059	1.04 ± 0.062
WDR92 (UniProt Q96MX6)	1.03 ± 0.025	1.06 ± 0.064
PPWD1 (UniProt Q96BP3)	1.01 ± 0.042	1.03 ± 0.044
CDKN2AIPNL (UniProt Q96HQ2)	0.93 ± 0.09	0.824 ± 0.3
NACC1 (UniProt Q96RE7)	0.954 ± 0.022	0.928 ± 0.015
UniProt Q96D05 and related entries	0.879 ± 0.16	0.813 ± 0.27
UniProt Q96IQ9-2|Q96IQ9	1 ± 0.063	0.954 ± 0.017
UniProt Q96JM7 and related entries	1.04 ± 0.027	1.08 ± 0.057
CDCA5 (UniProt Q96FF9)	0.989 ± 0.074	1.012 ± 0.0074
UniProt Q96Q11 and related entries	1 ± 0.052	1.05 ± 0.063
PTCD3 (UniProt Q96EY7)	0.98 ± 0.067	0.972 ± 0.098
UniProt Q96F44 and related entries	1.06 ± 0.034	1.06 ± 0.051
UniProt Q96PU5 and related entries	0.984 ± 0.032	0.999 ± 0.026

Looked up above.
Entry of FAF2 (UniProt Q96CS3) under NP40-soluble protein abundance (concentration: 0.1mM): 1.07 ± 0.13
Entry of PDLIM5 (UniProt Q96HC4) under NP40-soluble protein abundance (concentration: 0.1mM): 1.01 ± 0.059
Entry of UniProt Q96SB8 and related entries under NP40-soluble protein abundance (concentration: 0.1mM): 1.05 ± 0.036
Entry of UniProt Q96L93 and related entries under NP40-soluble protein abundance (concentration: 0.1mM): 1.08 ± 0.055

Carrying on:

Target	NP40-soluble protein abundance (concentration: 0.1mM)	NP40-soluble protein abundance (concentration: 0.5mM)
UniProt Q96PV6-2	0.986 ± 0.02	1.05 ± 0.027
UniProt Q96DB5	0.937 ± 0.058	0.957 ± 0.029
MRPS24 (UniProt Q96EL2)	0.983 ± 0.081	1 ± 0.057
TRMT61A (UniProt Q96FX7)	1.03 ± 0.025	1.02 ± 0.014
KTI12 (UniProt Q96EK9)	0.938 ± 0.12	0.929 ± 0.12
CHCHD1 (UniProt Q96BP2)	1.01 ± 0.085	0.973 ± 0.21
LYSMD1 (UniProt Q96S90)	0.999 ± 0.045	0.992 ± 0.023
ZC3H10 (UniProt Q96K80)	0.978 ± 0.079	0.9086 ± 0.0046
FUBP3 (UniProt Q96I24)	1 ± 0.016	0.987 ± 0.028
UniProt Q96EP0 and related entries	1.05 ± 0.023	0.982 ± 0.039
UniProt Q96BZ9 and related entries	0.962 ± 0.11	0.914 ± 0.051
UniProt Q96ME1-4	1.03 ± 0.1	0.985 ± 0.035
RBMXL1 (UniProt Q96E39)	0.992 ± 0.019	1.1 ± 0.032
RANBP9 (UniProt Q96S59)	0.987 ± 0.045	0.977 ± 0.072
UniProt Q96BY6-3	1.05 ± 0.038	1.04 ± 0.033
UniProt Q96MX0 and related entries	0.845 ± 0.1	0.845 ± 0.2
UniProt Q96EA4 and related entries	0.941 ± 0.08	0.954 ± 0.022
UniProt Q96Q89-3|Q96Q89 and related entries	1.04 ± 0.015	1.04 ± 0.035
SIN3A (UniProt Q96ST3)	1.03 ± 0.053	1.04 ± 0.048
UniProt Q96IU4 and related entries	1 ± 0.015	0.965 ± 0.014

Target	NP40-soluble protein abundance (concentration: 0.1mM)	NP40-soluble protein abundance (concentration: 0.5mM)
UniProt Q96EM0	1.07 ± 0.15	1.15 ± 0.13
UniProt Q96FC9 and related entries	1.07 ± 0.073	0.922 ± 0.051
HEXIM2 (UniProt Q96MH2)	0.92 ± 0.19	0.957 ± 0.081
THOC3 (UniProt Q96J01)	1.07 ± 0.084	1.14 ± 0.076
UniProt Q96PM5 and related entries	1.12 ± 0.095	1.03 ± 0.083
UniProt Q96L91 and related entries	0.976 ± 0.057	1.03 ± 0.079
UniProt Q96IZ7 and related entries	1.1 ± 0.035	1.44 ± 0.092
OPTN (UniProt Q96CV9)	1.004 ± 0.0097	0.966 ± 0.013
UniProt Q96CB8 and related entries	0.998 ± 0.034	1.02 ± 0.069
UniProt Q96KC2	1.02 ± 0.011	1.05 ± 0.13
EAF1 (UniProt Q96JC9)	0.904 ± 0.038	0.908 ± 0.019
NUDT11 (UniProt Q96G61)	1.01 ± 0.04	0.951 ± 0.075
SLC7A6OS (UniProt Q96CW6)	0.982 ± 0.061	0.944 ± 0.049
TP53RK (UniProt Q96S44)	0.979 ± 0.034	0.996 ± 0.038
UniProt Q96SK2 and related entries	1.08 ± 0.083	1.05 ± 0.017
FAHD2A (UniProt Q96GK7)	1.06 ± 0.048	1.06 ± 0.056
UniProt Q96RT1 and related entries	1 ± 0.026	1 ± 0.048
COG3 (UniProt Q96JB2)	0.99 ± 0.1	1 ± 0.098
UniProt Q96T21 and related entries	0.947 ± 0.038	0.967 ± 0.081
UniProt Q96HD1 and related entries	1.08 ± 0.074	1.04 ± 0.11
